Results are given in words; binding and its absence hold for the method and conditions named. For some assays here: Binding seen in cells or lysates may run through a third protein. Some binding calls cover weakened binding; strength is not graded here.
Key:
[1] = target: Androgen receptor (human (endogenous in prostate cancer cell lines)) (UniProt P10275); assay: co-IP; coimmunoprecipitation of endogenous AR in prostate cancer cells, immunoblot
[2] = target: Androgen receptor (human (endogenous in prostate cancer cell lines)) (UniProt P10275); assay: SEC; size-exclusion chromatography fractions of nuclear lysate from wild-type LNCaP cells, immunoblotted

Amino acid sequences for entries named in this document (tags omitted).
UniProt P10275: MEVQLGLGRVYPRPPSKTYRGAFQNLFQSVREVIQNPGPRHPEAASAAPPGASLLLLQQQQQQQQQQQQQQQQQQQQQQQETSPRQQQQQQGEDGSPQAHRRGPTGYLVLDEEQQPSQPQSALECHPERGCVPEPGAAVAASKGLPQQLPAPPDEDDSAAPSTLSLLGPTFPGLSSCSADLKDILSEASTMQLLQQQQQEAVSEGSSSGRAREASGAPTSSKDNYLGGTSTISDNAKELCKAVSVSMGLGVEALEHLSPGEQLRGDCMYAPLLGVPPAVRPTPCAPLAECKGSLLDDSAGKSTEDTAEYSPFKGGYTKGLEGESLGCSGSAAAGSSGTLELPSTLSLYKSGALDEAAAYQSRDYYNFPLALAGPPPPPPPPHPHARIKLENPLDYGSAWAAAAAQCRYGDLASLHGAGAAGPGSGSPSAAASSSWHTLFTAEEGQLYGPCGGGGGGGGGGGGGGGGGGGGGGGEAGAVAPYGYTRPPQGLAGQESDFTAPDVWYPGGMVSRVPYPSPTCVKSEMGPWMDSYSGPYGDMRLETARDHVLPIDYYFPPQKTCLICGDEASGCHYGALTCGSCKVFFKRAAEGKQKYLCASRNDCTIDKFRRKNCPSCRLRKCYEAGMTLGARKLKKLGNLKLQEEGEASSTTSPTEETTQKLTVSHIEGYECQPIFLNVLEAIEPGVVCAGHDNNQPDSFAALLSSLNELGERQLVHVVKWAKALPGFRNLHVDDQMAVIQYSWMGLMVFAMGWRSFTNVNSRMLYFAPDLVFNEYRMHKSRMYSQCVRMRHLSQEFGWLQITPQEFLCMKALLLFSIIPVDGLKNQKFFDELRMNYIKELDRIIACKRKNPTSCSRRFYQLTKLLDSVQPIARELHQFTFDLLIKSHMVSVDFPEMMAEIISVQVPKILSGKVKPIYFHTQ
UniProt O96028: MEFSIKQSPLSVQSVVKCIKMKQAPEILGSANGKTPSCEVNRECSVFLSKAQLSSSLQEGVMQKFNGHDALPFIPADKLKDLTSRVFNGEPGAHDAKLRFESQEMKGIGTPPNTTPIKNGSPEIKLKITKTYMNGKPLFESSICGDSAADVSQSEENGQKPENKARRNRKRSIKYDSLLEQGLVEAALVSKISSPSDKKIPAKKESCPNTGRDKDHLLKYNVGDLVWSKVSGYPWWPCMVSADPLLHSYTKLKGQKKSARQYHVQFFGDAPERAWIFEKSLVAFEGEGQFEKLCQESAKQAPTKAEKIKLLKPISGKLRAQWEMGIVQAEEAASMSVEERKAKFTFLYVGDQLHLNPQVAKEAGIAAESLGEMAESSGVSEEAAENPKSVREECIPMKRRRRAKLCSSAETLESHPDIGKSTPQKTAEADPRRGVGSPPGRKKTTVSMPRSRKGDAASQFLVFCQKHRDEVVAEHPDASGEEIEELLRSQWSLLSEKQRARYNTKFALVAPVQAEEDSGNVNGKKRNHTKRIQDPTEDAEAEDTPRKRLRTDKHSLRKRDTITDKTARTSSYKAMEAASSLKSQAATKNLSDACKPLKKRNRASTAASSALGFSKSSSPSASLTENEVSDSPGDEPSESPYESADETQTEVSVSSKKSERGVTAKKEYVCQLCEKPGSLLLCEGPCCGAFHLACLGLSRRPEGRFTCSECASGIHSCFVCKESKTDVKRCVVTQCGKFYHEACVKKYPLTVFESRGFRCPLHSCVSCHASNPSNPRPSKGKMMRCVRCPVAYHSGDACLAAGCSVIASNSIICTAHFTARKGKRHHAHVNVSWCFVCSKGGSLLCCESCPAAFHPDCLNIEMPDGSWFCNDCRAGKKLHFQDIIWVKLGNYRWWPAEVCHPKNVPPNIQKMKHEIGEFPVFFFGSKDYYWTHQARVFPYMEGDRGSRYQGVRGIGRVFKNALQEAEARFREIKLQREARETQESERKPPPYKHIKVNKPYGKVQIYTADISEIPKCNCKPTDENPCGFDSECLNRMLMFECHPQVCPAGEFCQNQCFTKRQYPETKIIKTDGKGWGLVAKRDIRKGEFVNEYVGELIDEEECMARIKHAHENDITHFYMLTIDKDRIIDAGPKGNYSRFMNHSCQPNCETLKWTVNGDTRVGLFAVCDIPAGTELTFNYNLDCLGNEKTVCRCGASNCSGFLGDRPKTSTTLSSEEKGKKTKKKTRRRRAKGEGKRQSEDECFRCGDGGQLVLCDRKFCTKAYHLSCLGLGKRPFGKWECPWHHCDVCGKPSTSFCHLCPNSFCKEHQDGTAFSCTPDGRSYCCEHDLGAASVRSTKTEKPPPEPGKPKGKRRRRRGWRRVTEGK

nuclear receptor binding SET domain protein 2 (from UniProt O96028 1-1365)
binding [1]: binds
binding [2]: binds

— paper PMC11525188
